Laboratory results as given in PubChem BioAssay AID493014 (National Center for Advancing Translational Sciences (NCATS), 2011).
In all, about 340,000 compounds went through this assay and about 170 (0.05%) were called active. Inconclusive results, whose numbers are uncertain, are shown with a selection of clear calls. The call rests on the fitted dose curve; in most records, active means well fitted inhibition curve with a large enough effect in the signal ratio, with a control signal flat (not every such curve was filed as active); inconclusive means small, poorly fitted or top-dose-only effect, or effect the other way, or a change in a side signal; inactive means flat fitted curve, though single readings scatter; the % refers to the signal ratio. Potencies beside an inconclusive call are fits to weak or partial responses and may not hold up.

Assay: qHTS Assay to Find Inhibitors of Chronic Active B-Cell Receptor Signaling;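 on activity change, negative = inhibition: plate controls were basal doxycycline-induced cells for no effect and cells given 10 µM MG132 for full effect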
Conditions: ABC-DLBCL IkBa-CBG/CBR reporter, luminescence ratio (green luciferase fused to IkBa over red control in TMD8 lymphoma cells), 4 h; activity change, negative = inhibition: at 46.1 µM (top of the series) unless noted
Procedure, shortened: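 TMD8 human ABC-DLBCL cells with doxycycline-inducible IκBα–green luciferase fusion and unfused red luciferase, in 0.5% FBS medium; compounds up to 46 uM, 4 h at 37C. Green/red luminescence ratio, filter-overlap corrected, fitted to concentration-response curves.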
Potency means the concentration at half of the fitted maximal effect.

SMILES | activity change, negative = inhibition | Potency
COc1ccc(OCC(=O)N2N=C(C(F)F)CC2(O)C(F)F)cc1 (configuration not stated) | inconclusive: -0.899% | 
CCCCNC(=O)CC1Nc2ccccc2NC1=O (configuration not stated) | inconclusive: 2.75% | 
COc1ccc(C(=O)/C(=C/N(C)C)S(=O)(=O)c2ccccc2)cc1 | inconclusive: -0.977% | 
COc1ccc(NC(=O)c2ccc(NC(=O)N3CCSc4ncccc43)cc2)cc1 |  | inconclusive: 35.5 µM [rising, single point]
CCn1c(Cc2cccc3ccccc23)nnc1SCC(=O)Nc1nccs1 | inconclusive: -23.7% | 
O=C(CN(Cc1ccco1)C(=O)CNS(=O)(=O)c1ccccc1)NCc1ccc(F)cc1 | inconclusive: -3.36% | 
COc1ccccc1N1CCN(C(=O)C2CCN(S(=O)(=O)c3ccc4c(c3)CC(C)N4C(C)=O)CC2)CC1 (configuration not stated) | inconclusive: 8.85% | 
CC(=O)c1cccc(NC(=S)NC(=O)c2ccccc2)c1 |  | inconclusive: 20.6 µM [falling, single point]
Cc1nc(-c2ccccc2)sc1C(=O)CSc1ccc(Br)cc1 |  | inconclusive: 1.64 µM [rising, full curve]
Cc1ccc(-c2nnc(NC(=O)Cc3ccc(F)cc3)o2)c(C)c1 | inactive | 
CCCn1c(SCC(=O)Nc2ccccc2C(=O)NC2CC2)n[nH]c1=O | inactive | 
COc1ccccc1CNn1c(-c2cccc(C)c2)nc2ccccc2c1=O |  | inconclusive: 23.1 µM [rising, partial curve]
COC(=O)c1ccc(-c2nc(O)c3cnccn23)cc1 | inconclusive: -0.053% | 
COc1ccc(NC(=O)C23CC4CC(C2)CC(c2ccccc2)(C4)C3)c(OC)c1 | inactive | 
FC(F)(F)c1cccc(NC(=S)Nc2cccc(NC(=S)Nc3cccc(C(F)(F)F)c3)n2)c1 |  | inconclusive: 20 µM [cytotoxic, partial curve, poor fit]
CCN(CC)CCNC(=O)CCn1nc(-c2ccc(Cl)cc2)ccc1=O | inconclusive: 1.03% | 
CCOC(=O)Cn1c(=N)n(CCOc2ccc(F)cc2)c2ccccc21 | inconclusive: 1.85% | 
COc1cccc(/C=N/Nc2nc(C)cc(=O)[nH]2)c1OC | inconclusive: -19.5% | 
Cn1c(=O)c2c(nc(Br)n2Cc2ccc3ccccc3c2)n(C)c1=O | inconclusive: -10.6% | 
COc1ccccc1NC(=O)Nc1nnc(C(C)c2ccccc2)s1 (configuration not stated) | inactive | 
COc1ccc(OC)c(-c2cc(C3CCN(c4ncccc4[N+](=O)[O-])CC3)[nH]n2)c1 | inconclusive: -1.15% | 
CCCCNC(=O)C(CC)Sc1nc2ccccc2c(=O)n1Cc1ccco1 (configuration not stated) | inactive | 

Shown tab-delimited: six of the compounds above.
SMILES	activity change, negative = inhibition	Potency
COc1ccccc1N1CCN(C(=O)C2CCN(S(=O)(=O)c3ccc4c(c3)CC(C)N4C(C)=O)CC2)CC1 (configuration not stated)	inconclusive: 8.85%	
CC(=O)c1cccc(NC(=S)NC(=O)c2ccccc2)c1		inconclusive: 20.6 µM [falling, single point]
Cc1nc(-c2ccccc2)sc1C(=O)CSc1ccc(Br)cc1		inconclusive: 1.64 µM [rising, full curve]
Cc1ccc(-c2nnc(NC(=O)Cc3ccc(F)cc3)o2)c(C)c1	inactive	
CCCn1c(SCC(=O)Nc2ccccc2C(=O)NC2CC2)n[nH]c1=O	inactive	
COc1ccccc1CNn1c(-c2cccc(C)c2)nc2ccccc2c1=O		inconclusive: 23.1 µM [rising, partial curve]
